Construct, isoform or probe ends are uncertain for at least one entry. For part of these data: A weaker result is weaker than the reference pair of the same experiment.
Tests used:
[1] = target: NarP (SO3982), phosphorylated (Shewanella oneidensis) (UniProt Q8EAC5); test: EMSA; conditions: 2 ug poly(dI·dC), 100 mM Tris/HCl pH 7.4, 20 mM KCl, 10 mM MgCl2, 2 mM DTT, 10% glycerol, 15 C, 60 min, ~2 nM probe, 4.8% native PAGE, recombinant protein, residues 1-209, protein details: N-terminal His-tag, label: 33P end label, probe letters rebuilt from the primers and the genome
[2] = target: NarP (SO3982), phosphorylated (Shewanella oneidensis) (UniProt Q8EAC5); test: competition with a labelled probe; conditions: excess unlabeled nrfA fragment (10 uM) outcompetes labeled probe; 100 mM Tris/HCl pH 7.4, 20 mM KCl, 10 mM MgCl2, 2 mM DTT, 10% glycerol, 15 C, 60 min, ~2 nM probe, 2 ug poly(dI·dC); 4.8% native PAGE; recombinant protein; residues 1-209; protein details: N-terminal His-tag; label: 33P end label; probe letters rebuilt from the primers and the genome

Row | Sequence | binding result ([1]; 2 uM NarP phosphorylated by NarQ51-585, much lower than nrfA) | binding result ([1]; NarP phosphorylated by NarQ51-585 and ATP) | binding result [2]
1 | GTACAACTAAATGTGGATACCTGCGAGTCTAGACCTGATTAAAAATGTGGGTATACCTCACAAGAGGTATTGAAGGGGATAGTCGATCGGGATCAAAGTTTTACGCGTGATCTAACTCTCAGTTTGAAATTTAAACAATCGCTATCCCTT (double strand) [nap promoter fragment] | binds more weakly |  | 
2 | AAGTTAGTAGCTAAATACCGCTAAAAATATACCTCTTAGGGGGTATCTGAAACGAAGTTTGCGCTAGATCAAAATGTAATAGTGTTGTTGTTCACACTTCTATGCTTTTGTTAATGTAATACATTATTTTCTAATGTAAAAAACACGGCT (double strand) [nrfA promoter fragment] |  | binds | binds

Source: PMC3519889
